The assay can be described thus: qHTS Assay to Find Inhibitors of Chronic Active B-Cell Receptor Signaling. As to conditions: ABC-DLBCL IkBa-CBG/CBR reporter, luminescence ratio (green luciferase fused to IkBa over red control in TMD8 lymphoma cells), 4 h. Put shortly: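 Compounds up to 46 uM were incubated four hours with TMD8 cells whose green CBG68 luciferase is fused to IkappaBalpha; red CBR luminescence normalised the signal, and concentration-effect curves were fitted to fusion, red and ratio data.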

[1] abbreviates: measured here: CBR red luminescence, cell number.
Setting [2] is: measured here: IkBa-CBG green luminescence.

This is one part of the list. The main result of the screen is listed elsewhere. These columns were measured beside it and carry no call. Most of these compounds were active or inconclusive in the main read-out, so they are no random draw. Words in brackets tell the shape of the fitted curve; partial curves, single points and poor fits give uncertain potencies.

As for `O=C(c1ccccc1)c1ccc2c(c1)OCCCO2`, the concentration at half-maximal activity (AC50) under setting [1] was 11.2 µM [falling, partial curve].

On to `CN(CC(=O)Nc1cccc(F)c1)C(=O)c1ccc(COc2ccccc2)cc1`, for which the AC50 under setting [1] was 3.26 µM [falling, partial curve].

For `Fc1ccc(-c2nc(-c3cnccn3)no2)c(Cl)c1`, under setting [1], the AC50 is 12.6 µM [rising, partial curve].

For `O=C(CSc1nc2ccc(Nc3nc(N4CCOCC4)nc(N4CCOCC4)n3)cc2s1)N1CCOCC1`, the AC50 under setting [2] was 2.91 µM [falling, partial curve, poor fit].

As to `C/C(=N\NC(=O)c1nn(C)cc1Cl)c1ccncc1`, the AC50 under setting [1] is 23.1 µM [falling, partial curve].

Consider `O=C(Nc1ccc(Cl)cc1)c1cc(S(=O)(=O)NC2CCCCCC2)ccc1F`, for which the half-maximal activity concentration (AC50) under setting [1] is 10 µM [falling, partial curve].

Regarding `Cc1cc(C(=O)CSc2ccc(F)cc2)cc(C)c1OC(=S)N(C)C`, the AC50 under setting [1] was 14.6 µM [falling, partial curve, poor fit].

Consider `CN(C)c1nc(N)nc(CSc2nnnn2C)n1`, for which the AC50 under setting [1] is 23.1 µM [rising, single point].

On to `Cn1cccc1CNCc1ccccc1Cl`, for which the AC50 under setting [1] is 28.2 µM [falling, partial curve, poor fit].

With `Cn1nccc1C(=O)N1CCN(c2ccc(F)cc2)CC1`, the AC50 under setting [1] was 29.1 µM [rising, partial curve, poor fit].

In the case of `C/C(=N\NC(=O)c1sccc1C)c1cccnc1`, the AC50 under setting [1] is 3.16 µM [falling, partial curve, poor fit].

In the case of `NS(=O)(=O)c1ccc(NC(=O)COC(=O)CCCN2C(=O)c3cccc4cccc(c34)C2=O)cc1`, under setting [1], the AC50 was 6.51 µM [rising, single point].

With `COc1ccc(S(=O)(=O)c2cnc3ccccc3n2)cc1`, under setting [1], the AC50 was 14.1 µM [falling, partial curve, poor fit].

As to `COc1ccc(NCCC(O)c2ccc(Cl)cc2)cc1` (stereo not drawn), the AC50 under setting [1] was 8.91 µM [rising, partial curve, poor fit].

Take `Cc1cccc(NC(=S)NC(=O)/C=C/c2ccccc2)n1`: the AC50 under setting [1] was 35.5 µM [falling, single point].

For the molecule `FC(F)(F)c1cc(-c2cccs2)nc(NCc2ccco2)n1`, the AC50 under setting [1] is 1.26 µM [falling, full curve, poor fit].

`OC1(c2ccc(Cl)c(Cl)c2)C[n+]2ccccc2N1Cc1ccccc1` (stereo not drawn): the AC50 under setting [1] was 10 µM [falling, partial curve].

Turning to `CCc1noc(C)c1C(=O)Nc1nc2c(F)cc(F)cc2s1`, the AC50 under setting [1] was 16.4 µM [falling, single point].

As for `COc1cc(NC(=O)c2cc(C)no2)cc(OC)c1OC`, under setting [1], the AC50 is 25.1 µM [falling, single point].

As for `COC(=O)c1cncc(O)c1`, the AC50 under setting [1] is 5.17 µM [falling, partial curve, poor fit].

On to `CC1(C)CC2CC(C)(CN2CC(O)c2ccccc2)C1` (stereo not drawn), for which the AC50 under setting [1] is 10 µM [rising, partial curve, poor fit].

As to `COc1ccc(CCNC(=O)c2coc(=O)c(Br)c2)cc1`, the AC50 under setting [1] was 35.5 µM [falling, single point].

Regarding `CC(=O)c1cccc(NC(=O)NC2CCCCCCC2)c1`, under setting [1], the half-maximal activity concentration (AC50) was 3.98 µM [rising, full curve, poor fit].

Consider `CN(C)c1ccc(-c2nn3c(-c4ccccc4Cl)nnc3s2)cc1`, for which the AC50 under setting [1] is 2.82 µM [rising, partial curve, poor fit] and the AC50 under setting [2] is 2.51 µM [falling, partial curve, poor fit].

Take `O=C(C[N+]1(CC#Cc2ccccc2)CCCCC1)c1ccc(Cl)cc1`: the AC50 under setting [1] was 2.82 µM [falling, partial curve, poor fit].

Turning to `Nc1ccc(CN2CCOCC2)cc1`, the half-maximal activity concentration (AC50) under setting [1] is 35.5 µM [rising, single point].

Regarding `CC(C)=CCC/C(C)=C/CC(C)(C)CNCCN1CCNCC1`, under setting [1], the AC50 was 15.8 µM [falling, partial curve, poor fit].

Regarding `CN(C)/C=N/NC(=O)c1ccccc1Cl`, the concentration at half-maximal activity (AC50) under setting [1] was 1.12 µM [falling, partial curve, poor fit].

With `Cc1cc(N2CCN(c3ccccc3)CC2)n2ncnc2n1`, the AC50 under setting [1] was 2.82 µM [falling, partial curve, poor fit].

In the case of `COCC(=O)N1CCC(Oc2ccc(C(=O)NCc3csc(C(C)C)n3)cc2)CC1`, under setting [1], the half-maximal activity concentration (AC50) was 20 µM [falling, partial curve, poor fit].

Turning to `CC(C)CCNC(=O)c1ccc2c(c1)N(C)C(=O)c1ccccc1S2`, the AC50 under setting [1] was 31.6 µM [rising, single point].

Take `Cc1cc(C)c2c(=O)[nH]c(SCc3ccccc3)nc2n1`: the AC50 under setting [1] was 4.47 µM [falling, full curve].

With `CCC(CC)C1C(C#N)=C(N)Oc2n[nH]c(-c3ccccc3)c21` (stereo not drawn), under setting [1], the AC50 was 7.31 µM [falling, partial curve].

`CC(OC(=O)c1c[nH]c2ccccc12)C(=O)N1CCCC1` (stereo not drawn): the concentration at half-maximal activity (AC50) under setting [1] was 9.2 µM [rising, single point].

Consider `CC1=C(C(N)=O)C(c2ccc(Cl)cc2Cl)n2ncnc2N1` (stereo not drawn), for which the AC50 under setting [1] is 2.59 µM [rising, partial curve, poor fit].

On to `CCOC(=O)c1oc2ccc(S(=O)(=O)n3nc(-c4ccccc4)cc3N)cc2c1C`, for which, under setting [1], the AC50 was 29.1 µM [falling, single point].

With `Cc1ccc(C(=O)Nc2cccc(C(F)(F)F)c2)cc1NC(=O)c1cnnc2ccccc12`, the AC50 under setting [1] is 2.24 µM [falling, full curve, poor fit].

Take `O=c1cc(N2CCc3ccccc32)[nH]c(=O)n1-c1ccccc1Cl`: the AC50 under setting [1] is 25.1 µM [falling, single point].

Consider `COc1ccccc1C(=O)/C=C/c1ccc(N2CCCCC2)c([N+](=O)[O-])c1`, for which, under setting [1], the AC50 is 20.6 µM [falling, single point].

On to `Cc1cnnc2ccc3c(no[n+]3[O-])c12`, for which, under setting [1], the half-maximal activity concentration (AC50) was 3.98 µM [rising, full curve].

For the molecule `Cc1ccc(-c2nnn(CC(=O)N3CCN(c4ccccc4)CC3)n2)o1`, under setting [1], the AC50 was 29.1 µM [rising, single point].

With `CCOC(=O)N1CCC(Nc2ncnc3c2cnn3-c2ccc(Cl)cc2)CC1`, the AC50 under setting [1] was 14.6 µM [rising, partial curve].

Turning to `O=C(CNC(=O)C1(c2ccccc2)CC1)Nc1ccc(F)c(F)c1`, under setting [1], the AC50 was 6.51 µM [rising, partial curve, poor fit].

Regarding `CC1=NN(c2ccccc2)C(=O)/C1=C/N(C)C`, the AC50 under setting [1] is 5.62 µM [rising, single point].

With `COC(=O)c1cccc(NC(=O)c2ccco2)c1`, under setting [1], the concentration at half-maximal activity (AC50) is 25.9 µM [falling, partial curve, poor fit].

As for `CCOC(=O)C1(CCCc2ccccc2)CCN(CC(O)CO)CC1` (stereo not drawn), the AC50 under setting [1] was 11.2 µM [falling, partial curve, poor fit].

`COc1ccc(CCNC(=O)CSc2nnc3ccc(-c4cccnc4)nn23)cc1`: the AC50 under setting [1] was 0.562 µM [falling, full curve].

For `Cc1cccc(NC2=C(NC(=O)c3ccccc3)C(=O)c3ccccc3C2=O)c1`, the AC50 under setting [1] is 29.1 µM [falling, single point].

As for `O=C(NCc1cc([N+](=O)[O-])ccc1O)c1cccc(NS(=O)(=O)c2ccccc2)c1`, under setting [1], the AC50 is 11.2 µM [falling, partial curve].

Consider `O=C(CN1C(=O)COc2ccccc21)N(Cc1cccnc1)Cc1cccc(F)c1`, for which, under setting [1], the AC50 is 20.6 µM [rising, single point].

As to `CC(C)(C)c1csc(NC(=O)c2c(F)c(F)c(F)c(F)c2F)n1`, the concentration at half-maximal activity (AC50) under setting [1] was 14.1 µM [falling, partial curve].

As to `COc1ccc(S(=O)(=O)Nc2cc(C)ccc2OC)cc1C`, the AC50 under setting [1] was 20.6 µM [falling, partial curve, poor fit].

Take `COc1ccc(CC(=O)Nc2nc(-c3ccc(F)c(F)c3)cs2)cc1`: the AC50 under setting [1] was 35.5 µM [falling, single point].

With `O=C1C(=O)N(c2cccc(Cl)c2)C(c2ccccc2[N+](=O)[O-])/C1=C(\O)c1ccccc1` (stereo not drawn), the AC50 under setting [1] was 20 µM [falling, single point].

As to `COc1ccccc1NC(=O)Nc1ccc2c(c1)OCCO2`, under setting [1], the AC50 is 8.91 µM [falling, partial curve, poor fit].

For `COc1ccc(-c2nc3ccccn3c2/N=C/c2ccc(OC)c(OC)c2)cc1O`, under setting [2], the AC50 was 3.26 µM [falling, partial curve, poor fit].

For the molecule `COc1cc(NC(=S)NCc2ccco2)cc(OC)c1OC`, the AC50 under setting [1] is 2.06 µM [rising, partial curve].

As to `Cc1sc2ncn(CC(=O)OC(C)C)c(=O)c2c1C`, the AC50 under setting [1] is 0.0651 µM [rising, full curve, poor fit].

Regarding `CC(C)=CCCC1(C)C=Cc2c(c(C)cc3c2[nH]c2cc(O)ccc23)O1` (stereo not drawn), the AC50 under setting [1] is 7.94 µM [rising, partial curve, poor fit].

As to `Cc1ccccc1C(=O)N1CCC(C(=O)Nc2nc3ccc(F)cc3s2)CC1`, the AC50 is, setting by setting: under setting [1], 16.4 µM [falling, partial curve]; under setting [2], 9.2 µM [rising, partial curve, poor fit].

Regarding `Cc1ccc2nc(=O)c(NNc3ccccc3)cnc2c1`, the AC50 under setting [1] is 4.61 µM [falling, partial curve].

Turning to `C/C(=N\NC(=O)c1ccccc1F)c1cccc(NC(=O)c2ccccc2)c1`, under setting [1], the AC50 is 7.08 µM [falling, full curve, poor fit].

For the molecule `N#C/C(=C/c1ccc(F)cc1)C(N)=S`, under setting [1], the AC50 was 7.08 µM [falling, partial curve].

For the molecule `Nc1nnc(-c2ccc(F)cc2)s1`, under setting [1], the AC50 was 0.891 µM [falling, full curve].

As for `O=c1[nH]c(C2CCN(S(=O)(=O)Cc3ccccc3)CC2)nc2c1nnn2Cc1ccccc1`, the AC50 under setting [2] was 12.6 µM [rising, partial curve, poor fit].

For `CC(C)Oc1ccc(-c2nc(NCC3CCCO3)c3ccccc3n2)cc1` (stereo not drawn), the AC50 under setting [1] is 3.55 µM [rising, single point].

The record behind these values is PubChem BioAssay AID493014 (National Center for Advancing Translational Sciences (NCATS), 2011).
